Primary screen of a compound library

Protein sequences, listed by entry. Tags and fused reporters are not part of them.
UniProt P9WPC5, whole entry: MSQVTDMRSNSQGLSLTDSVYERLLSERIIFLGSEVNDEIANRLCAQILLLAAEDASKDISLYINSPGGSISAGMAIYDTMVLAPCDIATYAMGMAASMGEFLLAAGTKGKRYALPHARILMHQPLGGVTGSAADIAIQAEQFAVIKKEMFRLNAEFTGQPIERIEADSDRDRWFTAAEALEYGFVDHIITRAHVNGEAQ
UniProt P9WPC3, whole entry partner: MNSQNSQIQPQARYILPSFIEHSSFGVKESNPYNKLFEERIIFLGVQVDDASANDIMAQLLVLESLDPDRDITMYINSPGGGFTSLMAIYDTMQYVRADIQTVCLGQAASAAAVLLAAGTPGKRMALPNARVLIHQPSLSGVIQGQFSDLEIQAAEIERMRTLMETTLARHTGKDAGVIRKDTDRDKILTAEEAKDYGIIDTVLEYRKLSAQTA

Source: ChEMBL document CHEMBL3988442, “University of Dundee, Small-Polar-MMV Screening Library” (2021).

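Protease assay of ClpP1P2, read by the AMC dye that it sets free. Target: ClpP1P2, Mycobacterium tuberculosis (UniProt P9WPC5 and UniProt P9WPC3). Concentration: 50 µM. Higher reads as stronger inhibition, judged from the few compounds that gave an IC50. Most other retested compounds had strongly negative values. Of about 69,000 compounds tested this way, about 10 (0.015%) reached 50% or more in at least one test.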

The filed quantity is “Percent Effect” (%). How 0% and 100% were set is not recorded. Most values in the screen are low, and negative values occur. The compounds are a random part of those screened.

| # | compound | percent effect |
|---|---|---|
| 1 | `O=C1CN(Cc2cn(C3CCN(C4CSCCSC4)CC3)nn2)CCN1` | -3.21% |
| 2 | `CC(CNC(=O)c1cnc[nH]1)Oc1ccc(Cl)cc1` (configuration not stated) | -6.06% |
| 3 | `Cc1sc(C(=O)O)cc1S(=O)(=O)Nc1c(F)cccc1-n1cccn1` | 1.935% |
| 4 | `Cc1ccnc(C2CN(c3ccnc(C)n3)C2)n1` | -7.77% |
| 5 | `CC(C)c1cc(NCC(O)CO)n2nccc2n1` (configuration not stated) | -14.89% |
| 6 | `CN1CCCN(S(=O)(=O)c2cnn(C)c2)c2cc(Cl)ccc21` | -1.079% |
| 7 | `Cc1noc(COCC(=O)Nc2cc(C)c(Br)cn2)n1` | -0.781% |
| 8 | `Cc1n[nH]c(C)c1C1COCCN1C(=O)c1ccccc1` (configuration not stated) | -4.376% |
| 9 | `COCc1nc(C2CC2)nn1-c1cccc(F)c1` | 1.549% |
| 10 | `Cn1nc(Cn2cccn2)c2c1CN(Cc1ccsc1)C2` | -3.686% |
| 11 | `CN(Cc1ccco1)C(=O)NCc1ccnc(SC(C)(C)C)c1` | 2.048% |
| 12 | `CCC(CC)c1cc(C(=O)N2CCN(CC(N)=O)CC2)on1` | -5.336% |
| 13 | `CC(=O)c1cccc(NC(=O)CN2CCCCC2C2OCCO2)c1` (configuration not stated) | 0.2517% |
| 14 | `Cc1nnc(SC2CCc3ccccc3NC2=O)n1C` (configuration not stated) | -16.28% |
| 15 | `CCn1nc(C)c(S(=O)(=O)Nc2cccc(C(=O)O)c2C)c1C` | -2.817% |
| 16 | `O=C(O)[C@@H]1CN(C2CCCC2)C[C@H]1C1CC1` | -1.885% |
| 17 | `CCN(C(=O)CN1CCCC1c1cccs1)c1ccccc1C` (configuration not stated) | 0.3927% |
| 18 | `COc1ccccc1CC(=O)N1C[C@H]2CC[C@@H]1CN(Cc1cscn1)C2` | -11.54% |
| 19 | `O=c1cc(Cn2cncn2)nc2n1CCCN(CCN1CCCC1)C2` | 2.733% |
| 20 | `Cc1nc(CN(Cc2cccs2)C2CCS(=O)(=O)C2)oc1C` (configuration not stated) | 6.148% |
| 21 | `CN(C)c1nccnc1C1CCN(C2CCCCC2O)CC1` (configuration not stated) | -5.465% |
| 22 | `O=C1CCCN1CCC1CCN(C2CCCNC2)CC1` (configuration not stated) | -7.163% |
| 23 | `Cc1cccc(N2CCN(C(=O)C3CC4(CCNCC4)CN3)CC2)n1` (configuration not stated) | 16.06% |
| 24 | `Cn1ccnc1CN1CCCC1CCc1ccccc1` (configuration not stated) | 4.116% |
| 25 | `CN(C)CCCNc1ncnc2cccc(F)c12` | 4.144% |
| 26 | `Cc1cc(NC(=O)NCCc2cccs2)n(C)n1` | -4.206% |
| 27 | `O=C(c1ccc(OCC2CC2)nc1)N1CCCC(n2ccnc2)C1` (configuration not stated) | 13.73% |
| 28 | `O=c1c2sccc2ncn1CC(O)CN1CCOCC1` (configuration not stated) | -3.6% |
| 29 | `Cc1nnc2n1CCN(Cc1csc(-c3ccc(F)cc3)n1)C2` | 7.496% |
| 30 | `O=C(C1CC=CC1)N1CC[C@@H]2O[C@@H](COCC3CCOCC3)CC[C@@H]21` | -8.348% |
| 31 | `Cc1nc2cc(=O)[nH]n2c(C)c1CC(=O)NCc1ccc(C#N)cc1` | -11.65% |
| 32 | `Cc1nccn1CC1CCCN1S(=O)(=O)Cc1ccon1` (configuration not stated) | 16.9% |
| 33 | `Cc1noc(CN(Cc2ccc3c(c2)OCO3)Cc2ccc(C)o2)n1` | 18.32% |
| 34 | `CCN1CC2(CC1=O)CN(C(=O)NC)CCN(S(C)(=O)=O)C2` (configuration not stated) | -6.063% |
| 35 | `CCN(C)CC1CCN(C(=O)Nc2ccc(-c3csnn3)cc2)C1` (configuration not stated) | -0.7939% |
| 36 | `COCc1noc(CNc2nc(C3CCCC3)nc3c2CCNCC3)n1` | -5.529% |
| 37 | `CN(Cc1ccncc1)C1CCC[C@@H]2CN(c3ncccn3)C[C@H]12` (some centres not stated) | -3.187% |
| 38 | `Cn1ccnc1CNC[C@H]1Cn2cc(-c3ccccc3)nc2CO1` | -3.286% |
| 39 | `CCn1cc(NC(=O)NCc2ccc3c(c2)OCO3)cn1` | -10.88% |
| 40 | `Cc1cn(Cc2ccc(F)cc2)nc1N` | -3.282% |
| 41 | `CCCS(=O)(=O)NC(=O)c1sc(C2CCCC2)nc1C` | -4.581% |
| 42 | `COC(=O)c1ccc(C2CC(=O)Nc3c2cnn3C)cc1` (configuration not stated) | 1.761% |
| 43 | `O=C(NCCN1C(=O)c2ccccc2C1=O)c1scnc1Cl` | -10.75% |
| 44 | `CC(=O)N(C)c1nc(CN2CCCCC2Cn2cncn2)cs1` (configuration not stated) | -1.071% |
| 45 | `O=C(Nc1nncs1)NC1CCCc2c1cnn2CCO` (configuration not stated) | 8.896% |
| 46 | `Cc1nn(CC(=O)N2CCN(c3ncccn3)CC2)c(C)c1Cl` | -5.672% |
| 47 | `Fc1ccc(OCCCN2CC(n3cccn3)C2)cc1` | 0.5785% |
| 48 | `O=C(Nc1ccc(Cl)cn1)c1nn(C2CCS(=O)(=O)C2)c2c1CCCC2` (configuration not stated) | -6.294% |

Repeated from the top, 4 entries:

{"compound": "O=C1CN(Cc2cn(C3CCN(C4CSCCSC4)CC3)nn2)CCN1", "percent effect": -3.21}
{"compound": "CC(CNC(=O)c1cnc[nH]1)Oc1ccc(Cl)cc1", "stereo": "configuration not stated", "percent effect": -6.06}
{"compound": "Cc1sc(C(=O)O)cc1S(=O)(=O)Nc1c(F)cccc1-n1cccn1", "percent effect": 1.935}
{"compound": "Cc1ccnc(C2CN(c3ccnc(C)n3)C2)n1", "percent effect": -7.77}